Some of the results follow. Many values rest on one well or one pass, so single values are uncertain.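 Imaging used 1,536-well plates; nuclei positive for cleaved PARP by antibody were divided by total DNA-stained nuclei to yield the apoptosis fraction. Doses for screening kept most cells viable, and cell lines differ markedly in resting and induced cleaved-PARP levels.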
Columns and labels:
Assay in all cases: cleaved PARP positive nuclei fraction relative to DMSO control; melanoma cells; higher = more apoptosis
Conditions in all cases: library dose: low library concentration; 72 h
WM115 = test system: WM115
WM1716 = test system: WM1716
WM1745 = test system: WM1745
WM3526 = test system: WM3526
WM3619 = test system: WM3619
WM451Lu = test system: WM451Lu

| Structure (SMILES) | cleaved PARP positive nuclei fraction (WM115) [%] | cleaved PARP positive nuclei fraction (WM1716) [%] | cleaved PARP positive nuclei fraction (WM1745) [%] | cleaved PARP positive nuclei fraction (WM3526) [%] | cleaved PARP positive nuclei fraction (WM3619) [%] | cleaved PARP positive nuclei fraction (WM451Lu) [%] |
| --- | --- | --- | --- | --- | --- | --- |
| C=CCNC1=C2C[C@@H](C)C[C@H](OC)[C@H](O)[C@@H](C)/C=C(\C)[C@H](OC(N)=O)[C@@H](OC)/C=C\C=C(/C)C(=O)NC(=CC1=O)C2=O [Tanespimycin] + N#Cc1c(O)c2c(-c3ccc(-c4ccccc4O)cc3)csc2[nH]c1=O [A769662] (first compound 0.002 µM, partner dose 2 µM) | 77.4 | 98.3 | 106 | 238 | 111 | 247 |
| O=C(Nc1cccc(Cl)c1)Nc1ncc(CCNc2ncnc3ccsc23)s1 + COc1ccc(-c2ccc3c(N4CCOCC4)nc(N4C[C@@H](C)O[C@@H](C)C4)nc3n2)cc1CO [KU0063794] (first compound 0.0008 µM, partner dose 0.02 µM) | 46 | 87.5 | 110 | 41.5 | 86.6 | 104 |
| O=C(CCCCCCC(=O)Nc1ccccc1)NO [vorinostat] + NC(=O)Nc1cc(-c2cccc(F)c2)sc1C(=O)N[C@H]1CCCNC1 [AZD7762] (first compound 0.08 µM, partner dose 0.02 µM) | 75 | 184 | 74.3 | 81 | 179 | 81.7 |
| C#Cc1cccc(Nc2ncnc3cc(OCCOC)c(OCCOC)cc23)c1 [erlotinib] + O=c1cc(-c2cccc3c2Sc2ccccc2S3)oc(N2CCOCC2)c1 [KU55933] (first compound 0.8 µM, partner dose 1 µM) | 58.8 | 65.6 | 121 | 176 | 74.7 | 142 |
| C[C@]1(c2nc3c(C(N)=O)cccc3[nH]2)CCCN1 [Veliparib] + Cc1cc(N2CCOCC2)cc2[nH]c(-c3c(NC[C@@H](O)c4cccc(Cl)c4)cc[nH]c3=O)nc12 [BMS536924] (first compound 1.4 µM, partner dose 0.2 µM) | 161 | 164 | 105 | 31.1 | 130 | 466 |
| C#Cc1cccc(Nc2ncnc3cc(OCCOC)c(OCCOC)cc23)c1 [erlotinib] + CC(C)(C)c1cnc(CSc2cnc(NC(=O)C3CCNCC3)s2)o1 [SNS-032] (first compound 0.8 µM, partner dose 0.01 µM) | 95.2 | 99 | 107 | 102 | 72.7 | 49.9 |
| C[C@]1(c2nc3c(C(N)=O)cccc3[nH]2)CCCN1 [Veliparib] + Oc1nc(-c2ccc(C(F)(F)F)cc2)nc2c1CSCC2 [XAV939] (first compound 1.4 µM, partner dose 2 µM) | 104 | 145 | 129 | 145 | 106 | 107 |
| CC(=O)c1c(C)c2cnc(Nc3ccc(N4CCNCC4)cn3)nc2n(C2CCCC2)c1=O [palbociclib] + COC(=O)c1sccc1S(=O)(=O)Nc1ccc(Nc2ccccc2)cc1OC [GSK0660] (first compound 0.04 µM, partner dose 1 µM) | 71.6 | 15.7 | 107 | 113 | 15.9 | 267 |
| Cn1nnc2c(C(N)=O)ncn2c1=O [temozolomide] + Cc1cc(N2CCOCC2)cc2[nH]c(-c3c(NC[C@@H](O)c4cccc(Cl)c4)cc[nH]c3=O)nc12 [BMS536924] (first compound 2 µM, partner dose 0.2 µM) | 67.6 | 227 | 109 | 107 | 111 | 172 |
| C=CCNC1=C2C[C@@H](C)C[C@H](OC)[C@H](O)[C@@H](C)/C=C(\C)[C@H](OC(N)=O)[C@@H](OC)/C=C\C=C(/C)C(=O)NC(=CC1=O)C2=O [Tanespimycin] + C[C@]1(c2nc3c(C(N)=O)cccc3[nH]2)CCCN1 [Veliparib] (first compound 0.002 µM, partner dose 1.4 µM) | 127 | 104 | 120 | 40.7 | 89.4 | 176 |
| Cc1nc(Nc2ncc(C(=O)Nc3c(C)cccc3Cl)s2)cc(N2CCN(CCO)CC2)n1 [dasatanib] + OCCn1cc(-c2cnc3nnn(Cc4ccc5ncccc5c4)c3n2)cn1 [PF04217903] (first compound 0.004 µM, partner dose 1 µM) | 104 | 195 | 153 | 49 | 124 | 251 |
| OCCn1cc(-c2cnc3nnn(Cc4ccc5ncccc5c4)c3n2)cn1 + C[C@@H]1CCN(C(=O)CC#N)C[C@@H]1N(C)c1ncnc2[nH]ccc12 [CP690550] (first compound 1 µM, partner dose 1 µM) | 58.4 | 46.5 | 175 | 85.9 | 92.9 | 63.6 |
| CC(=O)c1c(C)c2cnc(Nc3ccc(N4CCNCC4)cn3)nc2n(C2CCCC2)c1=O [palbociclib] + COCC[n+]1c2c(n(Cc3cnccn3)c1C)C(=O)c1ccccc1C2=O [YM155] (first compound 0.04 µM, partner dose 0.0004 µM) | 83.1 | 94.5 | 122 | 107 | 103 | 75.2 |
| Cc1nc(Nc2ncc(C(=O)Nc3c(C)cccc3Cl)s2)cc(N2CCN(CCO)CC2)n1 [dasatanib] + COc1cc(N2CCC(N3CCN(C)CC3)CC2)ccc1Nc1ncc(Cl)c(Nc2ccccc2S(=O)(=O)C(C)C)n1 [NVP-TAE684] (first compound 0.004 µM, partner dose 0.08 µM) | 140 | 420 | 241 | 69.2 | 107 | 75.2 |
| C#Cc1cccc(Nc2ncnc3cc(OCCOC)c(OCCOC)cc23)c1 [erlotinib] + O=S(=O)(c1ccccc1)N(CC(F)(F)F)c1ccc(C(O)(C(F)(F)F)C(F)(F)F)cc1 [T0901317] (first compound 0.8 µM, partner dose 1.4 µM) | 195 | 92.1 | 468 | 76.3 | 68.9 | 89.1 |
| C=CCNC1=C2C[C@@H](C)C[C@H](OC)[C@H](O)[C@@H](C)/C=C(\C)[C@H](OC(N)=O)[C@@H](OC)/C=C\C=C(/C)C(=O)NC(=CC1=O)C2=O [Tanespimycin] + COc1ccc2c(c1)CCC1C2CCC2(C)C(NCCCCCCN3C(=O)C=CC3=O)CCC12 [U73122] (first compound 0.002 µM, partner dose 0.4 µM) | 109 | 108 | 94.4 | 75.3 | 93.4 | 82.6 |
| CC(C)(C)c1cnc(CSc2cnc(NC(=O)C3CCNCC3)s2)o1 + Cn1cncc1[C@@](N)(c1ccc(Cl)cc1)c1ccc2c(c1)c(-c1cccc(Cl)c1)cc(=O)n2C [tipifarnib] (first compound 0.01 µM, partner dose 0.01 µM) | 148 | 179 | 86.5 | 66.2 | 115 | 280 |
| Cc1nc(Nc2ncc(C(=O)Nc3c(C)cccc3Cl)s2)cc(N2CCN(CCO)CC2)n1 [dasatanib] + CO[C@@H]1[C@H](N(C)C(=O)c2ccccc2)C[C@H]2O[C@]1(C)n1c3ccccc3c3c4c(c5c6ccccc6n2c5c31)C(=O)NC4 [Midostaurin] (first compound 0.004 µM, partner dose 0.08 µM) | 229 | 436 | 176 | 51.9 | 128 | 121 |
| C#Cc1cccc(Nc2ncnc3cc(OCCOC)c(OCCOC)cc23)c1 [erlotinib] + COc1ccc(COc2ccc(Cc3cnc(N)nc3N)cc2OC)cc1 [GW2580] (first compound 0.8 µM, partner dose 1 µM) | 221 | 27.6 | 127 | 67 | 88.3 | 51.2 |
| COc1cc(Nc2ncc(F)c(Nc3ccc4c(n3)NC(=O)C(C)(C)O4)n2)cc(OC)c1OC [Tamatinib] + N#Cc1c(O)c2c(-c3ccc(-c4ccccc4O)cc3)csc2[nH]c1=O [A769662] (first compound 0.4 µM, partner dose 2 µM) | 108 | 88.6 | 114 | 62.3 | 83.7 | 77.7 |
| CO[C@@H]1[C@H](N(C)C(=O)c2ccccc2)C[C@H]2O[C@]1(C)n1c3ccccc3c3c4c(c5c6ccccc6n2c5c31)C(=O)NC4 [Midostaurin] + COc1ccc(-c2ccc3c(N4CCOCC4)nc(N4C[C@@H](C)O[C@@H](C)C4)nc3n2)cc1CO [KU0063794] (first compound 0.08 µM, partner dose 0.02 µM) | 78.7 | 103 | 107 | 71.1 | 131 | 119 |
| C=CCNC1=C2C[C@@H](C)C[C@H](OC)[C@H](O)[C@@H](C)/C=C(\C)[C@H](OC(N)=O)[C@@H](OC)/C=C\C=C(/C)C(=O)NC(=CC1=O)C2=O [Tanespimycin] + CO[C@@H]1[C@H](N(C)C(=O)c2ccccc2)C[C@H]2O[C@]1(C)n1c3ccccc3c3c4c(c5c6ccccc6n2c5c31)C(=O)NC4 [Midostaurin] (first compound 0.002 µM, partner dose 0.08 µM) | 93.3 | 31.8 | 134 | 168 | 93.7 | 140 |
| CC(C)(C)c1cnc(CSc2cnc(NC(=O)C3CCNCC3)s2)o1 + CN(NC(=O)CC(=O)NN(C)C(=S)c1ccccc1)C(=S)c1ccccc1 [STA4783] (first compound 0.01 µM, partner dose 0.006 µM) | 127 | 98.7 | 186 | 157 | 212 | 218 |
| Clc1ccc(Nc2nnc(Cc3ccncc3)c3ccccc23)cc1 [vatalanib] + Cc1cc([N+](=O)[O-])ccc1NS(=O)(=O)c1cc(Cl)ccc1Cl [FH535] (first compound 2 µM, partner dose 1 µM) | 158 | 70.6 | 108 | 87 | 180 | 153 |
| Nc1cccc2c1CN(C1CCC(=O)NC1=O)C2=O (stereo not given) [lenalidomide] + CN(NC(=O)CC(=O)NN(C)C(=S)c1ccccc1)C(=S)c1ccccc1 [STA4783] (first compound 1 µM, partner dose 0.006 µM) | 63.1 | 151 | 216 | 125 | 179 | 32.1 |

Retrieved one by one from the entries so far:

| Structure (SMILES) | cleaved PARP positive nuclei fraction (WM115) [%] | cleaved PARP positive nuclei fraction (WM1716) [%] | cleaved PARP positive nuclei fraction (WM1745) [%] | cleaved PARP positive nuclei fraction (WM3526) [%] | cleaved PARP positive nuclei fraction (WM3619) [%] | cleaved PARP positive nuclei fraction (WM451Lu) [%] |
| --- | --- | --- | --- | --- | --- | --- |
| C#Cc1cccc(Nc2ncnc3cc(OCCOC)c(OCCOC)cc23)c1 [erlotinib] + CC(C)(C)c1cnc(CSc2cnc(NC(=O)C3CCNCC3)s2)o1 [SNS-032] (first compound 0.8 µM, partner dose 0.01 µM) | 95.2 | 99 | 107 | 102 | 72.7 | 49.9 |
| C=CCNC1=C2C[C@@H](C)C[C@H](OC)[C@H](O)[C@@H](C)/C=C(\C)[C@H](OC(N)=O)[C@@H](OC)/C=C\C=C(/C)C(=O)NC(=CC1=O)C2=O [Tanespimycin] + CO[C@@H]1[C@H](N(C)C(=O)c2ccccc2)C[C@H]2O[C@]1(C)n1c3ccccc3c3c4c(c5c6ccccc6n2c5c31)C(=O)NC4 [Midostaurin] (first compound 0.002 µM, partner dose 0.08 µM) | 93.3 | 31.8 | 134 | 168 | 93.7 | 140 |

Reference: the supplement of paper PMC4604168 (melanoma cell lines)
